“And” between values parts separate entries of the source, which are not always exact repeats. Equal values may be shown once. Not every detail of the peptide structures is certain; ends, links or a residue may be inferred.
Columns and labels:
Type in all cases: in vivo, human
[1] = system: HIV-infected subjects with NAFL/NASH; experiment: Liver biopsy histology, NAS CRN scoring system (NAS, fibrosis stage); set-up: key to Fibrosis stage Baseline / Fibrosis stage Year 1: Stage 0=no fibrosis; Stage 1=Perisinusoidal or periportal fibrosis; Stage 1A: Mild, zone 3, perisinusoidal; Stage 1B: Moderate, zone 3, perisinusoidal; Stage 1C: Portal/periportal only; Stage 2=Both perisinusoidal and portal/periportal; Stage 3=Bridging fibrosis; Stage 4=Cirrhosis; details: for Fibrosis stage Year 1 / NASH score Year 1: liver biopsy at end of 1-year treatment; for Fibrosis stage Baseline / NASH score Base: liver biopsy before treatment; for NASH score Base: NAS CRN scoring
[2] = system: HIV-infected subjects with NAFL/NASH; experiment: Hepatic fat fraction by 1H MRS, 12-month randomized double-blind placebo-controlled trial; details: for Hepatic Fat Fraction (HFF) Year 1: tesamorelin 2 mg sc daily; for Hepatic Fat Fraction (HFF) Year 1 / Hepatic Fat Fraction (HFF) Baseline: 1H MRS; for Hepatic Fat Fraction (HFF) Baseline: individual tesamorelin-treated patients who completed the study, fat fraction in percent
[3] = system: HIV-infected subjects with NAFL/NASH; experiment: Body composition: MRI of abdomen at L4 (VAT, SAT), DXA, anthropometrics
[4] = system: HIV-infected subjects with NAFL/NASH
Experimental: The study consisted of a 12-month, double-blind treatment phase during which participants were randomized in a 1:1 ratio receive to tesamorelin 2 mg daily or identical placebo, followed by a 6-month open label phase during which all participants receive tesamorelin. The pre-specified primary analysis, comparing changes over twelve months in tesamorelin vs. placebo treatment, is reported here. Randomization was stratified by site (NIH and MGH) and vitamin E use, defined as consistent use of ≥400 international units daily. The randomization list was prepared by the study statistician using a permuted block algorithm within each stratum with randomly varying block sizes. Tesamorelin was administered at the FDA-approved dose of 2 mg subcutaneously daily; participants were trained in reconstitution and self-injection at the baseline visit and administered the injections at home, returning used vials to assess compliance. IGF-1 Z-scores were monitored throughout the study by an independent endocrinologist at MGH otherwise unaffiliated with the study. A pre-specified threshold of IGF-1 Z-score of 3 was included in the protocol as a trigger to decrease tesamorelin dose to 1 mg, along with a dummy dose-reduction in the placebo group, but this was not required for any patient during the double-blind phase of the study.
All subjects received nutritional counseling from clinical research nutritionists at baseline, six and 12 months. Visits were conducted in the fasting state. The screening visit included history and physical examination, laboratory investigations for eligibility, MRS and magnetic resonance imaging (MRI), with the latter used to assess cross-sectional area of visceral adipose tissue (VAT) at the L4 vertebra. The MRI/MRS, HbA1c, CD4^+ count, and HIV viral load from the screening visit were used as the baseline measures. The baseline assessment included liver biopsy; whole body dual energy x-ray absorptiometry (DXA); fasting assessment of liver function tests, lipids, serum inflammatory markers, IGF-1, and HbA1c; and bionutrition assessment including 4-day food record, Modifiable Activity Questionnaire (Kriska A M, et al. Diabetes Care 1990; 13:401-11), and anthropometric measures performed in triplicate. Baseline assessments were repeated at 12 months along with repeat MRI/MRS, HbA1c, and immunologic parameters. An interim MRI/MRS was performed at the 6-month visit.
Laboratory analyses were conducted using standard methodologies. Clinical labs were measured at the NIH Clinical Laboratory and, for MGH, at LabCorp and Quest. IGF-1 was measured centrally at Quest Laboratories. C-reactive protein was measured using electrochemiluminescense (Meso Scale Discovery, Rockville, MD), and adiponectin was measured using ELISA (R&D Systems, Minneapolis, MN).
Per the pre-specified analysis plan, change in HFF was assessed by random intercept mixed effects modeling using restricted maximum likelihood to assess the effect estimate for the time×randomization interaction. All available data were used in the analysis, which was based on intention to treat. The same analysis was used for other endpoints measured at multiple timepoints during the double-blind period, including VAT, SAT, ALT, BMI, and glucose. For secondary endpoints measured at only baseline and 12-months, a paired t-test was performed using all available data. Data are presented as mean±standard deviation or, for categorical variables, number and percent. Between group comparisons at baseline were assessed using Student's t-test for continuous variables and Pearson's Chi Square statistic for categorical variables. Pearson's correlation coefficient was used to assess relationships between continuous variables. Two data points—one baseline ALT value and one baseline CRP value—were excluded due to being more than 5 standard deviations above the sample mean. A two-sided alpha of 0.05 was the pre-defined threshold for statistical significance. […]

[5] = system: liver tissues; experiment: Gene Set Enrichment Analysis (GSEA) on RNAseq data of paired liver biopsies
[6] = individual patients, before treatment, grades 0-3
[7] = individual patients, end of 1-year treatment, grades 0-3
[8] = individual patients, listed as Tesa
[9] = individual patients, listed as tesamorelin
[10] = average of tesamorelin-treated completers, baseline to Year 1
[11] = average of tesamorelin-treated completers, before treatment
[12] = average of tesamorelin-treated completers, end of 1-year treatment
[13] = individual patients, baseline to Year 1, tesamorelin 2 mg sc daily
[14] = individual patients, end of 1-year treatment
[15] = median of tesamorelin-treated completers, baseline to Year 1
[16] = median of tesamorelin-treated completers, before treatment
[17] = median of tesamorelin-treated completers, end of 1-year treatment
[18] = entire cohort, relative to placebo
[19] = change in liver gene expression over 12 months
[20] = tesamorelin-treated participants

## CC/C=C/CC(=O)N[C@@H](Cc1ccc(O)cc1)C(=O)N[C@@H](C)C(=O)N[C@@H](CC(=O)O)C(=O)N[C@@H](C)C(=O)N[C@H](C(=O)N[C@@H](Cc1ccccc1)C(=O)N[C@H](C(=O)N[C@@H](CC(N)=O)C(=O)N[C@@H](CO)C(=O)N[C@@H](Cc1ccc(O)cc1)C(=O)N[C@@H](CCCNC(=N)N)C(=O)N[C@@H](CCCCN)C(=O)N[C@H](C(=O)N[C@@H](CC(C)C)C(=O)NCC(=O)N[C@@H](CCC(N)=O)C(=O)N[C@@H](CC(C)C)C(=O)N[C@@H](CO)C(=O)N[C@@H](C)C(=O)N[C@@H](CCCNC(=N)N)C(=O)N[C@@H](CCCCN)C(=O)N[C@@H](CC(C)C)C(=O)N[C@@H](CC(C)C)C(=O)N[C@@H](CCC(N)=O)C(=O)N[C@@H](CC(=O)O)C(=O)N[C@H](C(=O)N[C@@H](CCSC)C(=O)N[C@@H](CO)C(=O)N[C@@H](CCCNC(=N)N)C(=O)N[C@@H](CCC(N)=O)C(=O)N[C@@H](CCC(N)=O)C(=O)NCC(=O)N[C@@H](CCC(=O)O)C(=O)N[C@@H](CO)C(=O)N[C@@H](CC(N)=O)C(=O)N[C@@H](CCC(N)=O)C(=O)N[C@@H](CCC(=O)O)C(=O)N[C@@H](CCCNC(=N)N)C(=O)NCC(=O)N[C@@H](C)C(=O)N[C@@H](CCCNC(=N)N)C(=O)N[C@@H](C)C(=O)N[C@@H](CCCNC(=N)N)C(=O)N[C@@H](CC(C)C)C(N)=O)[C@@H](C)CC)C(C)C)[C@@H](C)O)[C@@H](C)CC [Tesamorelin, trans-3-hexenoyl-GHRH(1-44)-NH2]
[1]; entire cohort, 12 months, 95% CI −1.0, 0.5, not significant
  NAS score effect size relative to placebo: −0.3
[1]; entire cohort, versus placebo
  progression of fibrosis during the treatment period: prevented the progression of fibrosis
[1]; individual patients, before treatment, grades 0-2
  Ballooning Base: 0 (13×) and 1 (3×) and 2 (2×)
[1]; [6]
  Lobular inflammation Base: 1 (14×) and 0 (2×) and 3 (2×)
  Steatosis Base: 2 (4×) and 0 (3×) and 1 (11×)
[1]; individual patients, end of 1-year treatment, grades 0-2
  Ballooning Year 1: 0 (13×) and 1 (4×) and 2
[1]; [7]
  Lobular inflammation Year 1: 0 (4×) and 1 (12×) and 2 (2×)
  Steatosis Year 1: 1 (9×) and 0 (4×) and 2 (3×) and 3 (2×)
[1]; individual patients
  Fibrosis stage Year 1: 0 (11×) and 1A (2×) and 1C and 2 and 3 (2×) and 4
  Fibrosis stage Baseline: 1B and 1A and 0 (10×) and 1C and 2 (3×) and 3 (2×)
[1]; [8]
  NASH score Year 1: 1 (8×) and 2 (3×) and 3 (2×) and 4 (4×) and 7
  NASH score Base: 3 (5×) and 1 (3×) and 2 (7×) and 0 and 7 (2×)
[1]; [9]
  Fibrosis stage Year 1: 1A
  NASH score Year 1: 4
  NASH score Base: 7
  Fibrosis stage Baseline: 2
[1]; tesamorelin group, 12 months (9 in placebo group; P=0.04), any increase in fibrosis stage
  individuals showing progression of fibrosis: 2
[2]; 12 months, 2 mg sc daily, mixed effects model, intention to treat, 95% CI −7.5, −0.7, P=0.02
  HFF effect size compared to placebo: −4.1%
[2]; [10]
  Hepatic Fat Fraction (HFF) Change (absolute), average: −4.75
  Hepatic Fat Fraction (HFF) Change (relative), average: −32%
[2]; [11]
  Hepatic Fat Fraction (HFF) Baseline, average: 14.72
[2]; [12]
  Hepatic Fat Fraction (HFF) Year 1, average: 9.97
[2]; baseline to 12 months, versus placebo, 95% CI −67, −7
  relative change in liver fat: −37%
[2]; [13]
  Hepatic Fat Fraction (HFF) Change (absolute): −3.6 (2×) and −0.88 and −3.77 and 1.13 and −15.79 and −12.89 and −4.04 and −0.02 and −5.7 and −2.1 and 14.83 and −4.16 and −4 and −8 and −12.33 and −5.16 and −8.03 and −2.73 and −14.1
  Hepatic Fat Fraction (HFF) Change (relative): −67% and −4% and −70% and 12% and −48% and −86% and −28% (2×) and 0% and −49% and 163% and −32% and −17% and −72% and −47% and −37% and −64% and −68% and −26% and −83%
[2]; [14]
  Hepatic Fat Fraction (HFF) Year 1: 1.78 and 23.08 and 1.59 and 10.22 (2×) and 17.40 and 2.14 and 19.89 and 5.97 and 5.42 and 23.93 and 8.86 and 20 and 1.4 and 9 and 21 and 2.94 and 3.85 and 7.87 and 2.87
[2]; individual patients, end of 1-year treatment, listed as tesamorelin
  Hepatic Fat Fraction (HFF) Year 1: 21 and 2.87 and 17.4 and 2.14
[2]; before treatment
  Hepatic Fat Fraction (HFF) Baseline: 5.38 and 23.96 and 5.36 and 9.09 and 33.19 and 15.03 and 14.26 and 19.91 and 11.67 and 7.50 and 9.10 and 13.02 and 24 and 5 and 17 and 33.33 and 8.10 and 11.88 and 10.60 and 16.97
[2]; before treatment, listed as tesamorelin
  Hepatic Fat Fraction (HFF) Baseline: 16.97 and 33.19 and 15.03 and 33.3
[2]; [15]
  Hepatic Fat Fraction (HFF) Change (absolute), median: −4.02
  Hepatic Fat Fraction (HFF) Change (relative), median: −42%
[2]; [16]
  Hepatic Fat Fraction (HFF) Baseline, median: 12.75
[2]; [17]
  Hepatic Fat Fraction (HFF) Year 1, median: 8.37
[2]; multiple imputation for missing data, 95% coverage −5.4, −2.2
  estimated effect size, reduction in HFF (sensitivity analysis): −3.8%
[2]; subjects with most elevated baseline HFF (e.g. ≥15%), patients no. 7, 24, 26, 55
  absolute reduction of HFF in some patients: more than 10%
[2]; summary statement
  effect on liver fat relative to visceral fat: more pronounced effect on the reduction of liver fat relative to visceral fat
[2]; tesamorelin group at 12 months (4% in placebo group; P=0.007)
  individuals with a reduction in HFF to <5%: 35%
[3]; 12 months
  Body mass index: did not change
  lean body mass by DXA: modestly increased
  waist circumference: did not change
[3]; 12 months, DXA
  total body fat mass: no significant effect
[3]; average of tesamorelin-treated completers
  Visceral adiposity Relative change, average: −7%
[3]; [11]
  Visceral adiposity Baseline, average: 237.05 cm^2
[3]; [12]
  Visceral adiposity Year 1, average: 215.63 cm^2
[3]; individual patients, baseline to Year 1
  Visceral adiposity Relative change: −1% (2×) and −2% and −6% and −31% and 1% and −86% and 4% and 29% and −49% and −12% and 146% and −20% and −50% and −21% and −8% and −18% and 11% and −16% and −15%
[3]; individual patients, before treatment, MRI at L4
  Visceral adiposity Baseline: 176.60 cm^2 and 250.91 cm^2 and 151.59 cm^2 and 159.08 cm^2 and 238.57 cm^2 and 203.14 cm^2 and 332.87 cm^2 and 329.31 cm^2 and 191.63 cm^2 and 251.99 cm^2 and 329.89 cm^2 and 131.36 cm^2 and 300.71 cm^2 and 265.39 cm^2 and 446.64 cm^2 and 364.66 cm^2 and 130.79 cm^2 and 218.12 cm^2 and 96.30 cm^2 and 171.49 cm^2
[3]; [14]
  Visceral adiposity Year 1: 174.63 cm^2 and 244.77 cm^2 and 141.88 cm^2 and 109.01 cm^2 and 240.79 cm^2 and 28.55 cm^2 and 346.80 cm^2 and 424.63 cm^2 and 98.62 cm^2 and 250.21 cm^2 and 290.85 cm^2 and 322.94 cm^2 and 240.42 cm^2 and 133.00 cm^2 and 352.00 cm^2 and 335.48 cm^2 and 107.84 cm^2 and 242.96 cm^2 and 80.86 cm^2 and 146.32 cm^2
[3]; median of tesamorelin-treated completers
  Visceral adiposity Relative change, median: −10%
[3]; [16]
  Visceral adiposity Baseline, median: 228.35 cm^2
[3]; [17]
  Visceral adiposity Year 1, median: 221.02 cm^2
[3]; relative to placebo, 12 months
  SAT area: no effect
  VAT area: significantly reduced
[4]; 12 months
  high-density lipoprotein cholesterol (HDL-C): No effect
  low-density lipoprotein cholesterol (LDL-C): No effect
  triglycerides: No effect
[4]; cohort restricted to elevated ALT (>30 U/L) at baseline, after 12 months, 95% CI −3, −55, P=0.03
  ALT effect size relative to placebo: −29 U/L
[4]; [18]
  ALT over the treatment period: did not significantly reduce
  GGT over the treatment period: did not significantly reduce
[4]; increase versus placebo, 12 months, 95% CI [76, 157], P<0.0001
  IGF-1 effect size: 117 ng/mL
[4]; relative to placebo
  CRP: reduced
  adiponectin: did not have any effect
[5]; [19]
  HCC good prognosis gene sets: upregulation
  HCC poor prognosis gene sets: downregulation
  genes involved in cell turnover: downregulation
  genes involved in tissue repair: downregulation
  multiple inflammatory pathways (e.g., TNF-alpha, IL-6 and IL-2): robust downregulation
[5]; change in liver gene expression over 12 months, tesamorelin n=18
  Oxidative phosphorylation gene set: upregulated
[5]; involved in fibrosis and oncogenesis
  Yap Taz pathway gene set: downregulation
[5]; [20]
  Apoptosis genes: downregulated
  Epithelial to mesenchymal transition (EMT) genes: downregulated
  Transforming growth factor-beta (TGF-β): downregulated
  UV response genes: downregulated
